Experimental data published in patent publication US9517222B2, “Method for the treatment of senile dementia of the Alzheimer's type” (Phenomenome Discoveries Inc., priority 2007, dated 2016).
Where no unit stands, none is given here, and values compare only within one read-out.

Tests used:
[1] = Serum ethanolamine phospholipid levels in human cohorts (dementia severity, post-mortem pathology, age) by flow-injection MS/MS
[2] = Serum ethanolamine phospholipid ratios to PtdEt 16:0/18:0 (M01) in human cohorts
[3] = serum, females, post mortem SDAT
[4] = serum, females, post mortem control

## CCCCC/C=C\C/C=C\C/C=C\C/C=C\CCCCCC(=O)OC(COCCCCCCCCCCCCCCCCCC)COP(=O)(O)OCCN (centres unmarked) [Metabolite M13, Plasmanyl 18:0/22:4]
[1]; AD, All to CN, Male
  Ratio of serum levels: 0.850
[1]; ADAS 5-19 to CN, Male
  Ratio of serum levels: 0.890
[1]; ADAS 20-39 to 5-19, Male
  Ratio of serum levels: 0.930
[1]; ADAS 20-39 to CN, Male
  Ratio of serum levels: 0.827
[1]; ADAS 40-70 to 5-19, Male
  Ratio of serum levels: 0.883
[1]; ADAS 40-70 to 20-39, Male
  Ratio of serum levels: 0.950
[1]; ADAS 40-70 to CN, Male
  Ratio of serum levels: 0.786
[1]; Cognitive Normal, Female
  Serum level, Mean: 0.013
[1]; Cognitive Normal, Male
  Average serum level, Mean: 0.013
[1]; Post Mortem Ctl, Male
  Serum level, Mean: 0.009
[1]; Post Mortem SDAT Male
  Serum level, Mean: 0.008
[1]; Post mortem SDAT vs Control, Male
  Ratio of serum levels: 0.576
[1]; SDAT, ADAS 5-19, Female
  Serum level, Mean: 0.011
[1]; SDAT, ADAS 5-19, Male
  Average serum level, Mean: 0.011
[1]; SDAT, ADAS 20-39, Female
  Serum level, Mean: 0.010
[1]; SDAT, ADAS 20-39, Male
  Average serum level, Mean: 0.010
[1]; SDAT, ADAS 40-70, Female
  Serum level, Mean: 0.010
[1]; SDAT, ADAS 40-70, Male
  Average serum level, Mean: 0.010
[1]; SDAT_all, Female
  Serum level, Mean: 0.010
[1]; SDAT_all, Male
  Average serum level, Mean: 0.011
[1]; serum level ratio, females, ADAS 5-19 vs CN
  Ratio, ADAS 5-19 to CN, Female: 0.834
[1]; serum level ratio, females, ADAS 20-39 vs ADAS 5-19
  Ratio, ADAS 20-39 to 5-19, Female: 0.953
[1]; serum level ratio, females, ADAS 20-39 vs CN
  Ratio, ADAS 20-39 to CN, Female: 0.794
[1]; serum level ratio, females, ADAS 40-70 vs ADAS 5-19
  Ratio, ADAS 40-70 to 5-19, Female: 0.936
[1]; serum level ratio, females, ADAS 40-70 vs ADAS 20-39
  Ratio, ADAS 40-70 to 20-39, Female: 0.982
[1]; serum level ratio, females, ADAS 40-70 vs CN
  Ratio, ADAS 40-70 to CN, Female: 0.780
[1]; serum level ratio, females, age 50-59 vs 40-49
  Ratio, 50-59 vs. 40-49, Female: 0.806
[1]; serum level ratio, females, age 60-69 vs 40-49
  Ratio, 60-69 vs. 40-49, Female: 0.737
[1]; serum level ratio, females, age 70+ vs 40-49
  Ratio, 70+ vs. 40-49, Female: 0.839
[1]; serum level ratio, females, all AD vs cognitively normal
  Ratio, AD, All to CN, Female: 0.800
[1]; serum level ratio, females, autopsy AD vs control
  Ratio, Autopsy AD vs. Control, Female: 0.865
[1]; serum level ratio, males, age 50-59 vs 40-49
  Ratio, 50-59 vs. 40-49, Male: 1.007
[1]; serum level ratio, males, age 60-69 vs 40-49
  Ratio, 60-69 vs. 40-49, Male: 1.032
[1]; serum level ratio, males, age 70+ vs 40-49
  Ratio, 70+ vs. 40-49, Male: 0.921
[1]; serum, females, age 30-39
  Mean serum level, Age Ctl, 30-39, Female: 0.013
[1]; serum, females, age 40-49
  Mean serum level, Age Ctl, 40-49, Female: 0.015
[1]; serum, females, age 50-59
  Mean serum level, Age Ctl, 50-59, Female: 0.012
[1]; serum, females, age 60-69
  Mean serum level, Age Ctl, 60-69, Female: 0.011
[1]; serum, females, age 70+
  Mean serum level, Age Ctl, 70+, Female: 0.012
[1]; [3]
  Mean serum level, Post Mortem SDAT, Female: 0.005
[1]; [4]
  Mean serum level, Post Mortem Ctl, Female: 0.010
[1]; serum, males, age 30-39
  Mean serum level, Age Ctl, 30-39, Male: 0.015
[1]; serum, males, age 40-49
  Mean serum level, Age Ctl, 40-49, Male: 0.013
[1]; serum, males, age 50-59
  Mean serum level, Age Ctl, 50-59, Male: 0.013
[1]; serum, males, age 60-69
  Mean serum level, Age Ctl, 60-69, Male: 0.013
[1]; serum, males, age 70+
  Mean serum level, Age Ctl, 70+, Male: 0.012
[2]; AD, All to CN, Male
  Ratio of ethanolamine phospholipid ratios to M01 between cohorts: 0.811
[2]; ADAS 5-19 to CN, Male
  Ratio of ethanolamine phospholipid ratios to M01 between cohorts: 0.846
[2]; ADAS 20-39 to CN, Male
  Ratio of ethanolamine phospholipid ratios to M01 between cohorts: 0.802
[2]; ADAS 40-70 to CN, Male
  Ratio of ethanolamine phospholipid ratios to M01 between cohorts: 0.772
[2]; Cognitive Normal, Male, serum
  Average serum ethanolamine phospholipid ratio to M01, Mean: 0.114
[2]; SDAT, ADAS 5-19, Male, serum
  Average serum ethanolamine phospholipid ratio to M01, Mean: 0.096
[2]; SDAT, ADAS 20-39, Male, serum
  Average serum ethanolamine phospholipid ratio to M01, Mean: 0.091
[2]; SDAT, ADAS 40-70, Male, serum
  Average serum ethanolamine phospholipid ratio to M01, Mean: 0.088
[2]; SDAT_all, Male, serum
  Average serum ethanolamine phospholipid ratio to M01, Mean: 0.092
[2]; human serum, females aged 30-39
  Ethanolamine Phospholipid Ratio to M01, Mean, Age Ctl, 30-39, Female: 0.129
[2]; human serum, females aged 40-49
  Ethanolamine Phospholipid Ratio to M01, Mean, Age Ctl, 40-49, Female: 0.136
[2]; human serum, females aged 50-59
  Ethanolamine Phospholipid Ratio to M01, Mean, Age Ctl, 50-59, Female: 0.122
[2]; human serum, females aged 50-59 vs. females aged 40-49
  Ratio of Ethanolamine Phospholipid Ratio to M01, 50-59 vs. 40-49, Female: 0.900
[2]; human serum, females aged 60-69
  Ethanolamine Phospholipid Ratio to M01, Mean, Age Ctl, 60-69, Female: 0.092
[2]; human serum, females aged 60-69 vs. females aged 40-49
  Ratio of Ethanolamine Phospholipid Ratio to M01, 60-69 vs. 40-49, Female: 0.680
[2]; human serum, females aged 70+
  Ethanolamine Phospholipid Ratio to M01, Mean, Age Ctl, 70+_Female: 0.104
[2]; human serum, females aged 70+ vs. females aged 40-49
  Ratio of Ethanolamine Phospholipid Ratio to M01, 70+ vs. 40-49, Female: 0.764
[2]; human serum, males aged 50-59 vs. males aged 40-49
  Ratio of Ethanolamine Phospholipid Ratio to M01, 50-59 vs. 40-49, Male: 1.035
[2]; human serum, males aged 60-69 vs. males aged 40-49
  Ratio of Ethanolamine Phospholipid Ratio to M01, 60-69 vs. 40-49, Male: 0.873
[2]; human serum, males aged 70+ vs. males aged 40-49
  Ratio of Ethanolamine Phospholipid Ratio to M01, 70+ vs. 40-49, Male: 0.787
[2]; serum, females, ADAS 5-19 vs cognitive normal
  Ratio of ethanolamine phospholipid ratio to M01, ADAS 5-19 to CN, Female: 0.914
[2]; serum, females, ADAS 20-39 vs ADAS 5-19
  Ratio of ethanolamine phospholipid ratio to M01, ADAS 20-39 to 5-19, Female: 0.934
[2]; serum, females, ADAS 20-39 vs cognitive normal
  Ratio of ethanolamine phospholipid ratio to M01, ADAS 20-39 to CN, Female: 0.854
[2]; serum, females, ADAS 40-70 vs ADAS 5-19
  Ratio of ethanolamine phospholipid ratio to M01, ADAS 40-70 to 5-19, Female: 0.882
[2]; serum, females, ADAS 40-70 vs ADAS 20-39
  Ratio of ethanolamine phospholipid ratio to M01, ADAS 40-70 to 20-39, Female: 0.944
[2]; serum, females, ADAS 40-70 vs cognitive normal
  Ratio of ethanolamine phospholipid ratio to M01, ADAS 40-70 to CN, Female: 0.806
[2]; serum, females, SDAT ADAS 5-19
  Ethanolamine phospholipid ratio to M01, Mean, SDAT, ADAS 5-19, Female: 0.101
[2]; serum, females, SDAT ADAS 20-39
  Ethanolamine phospholipid ratio to M01, Mean, SDAT, ADAS 20-39, Female: 0.095
[2]; serum, females, SDAT ADAS 40-70
  Ethanolamine phospholipid ratio to M01, Mean, SDAT, ADAS 40-70, Female: 0.089
[2]; serum, females, all AD vs cognitive normal
  Ratio of ethanolamine phospholipid ratio to M01, AD, All to CN, Female: 0.854
[2]; serum, females, all SDAT
  Ethanolamine phospholipid ratio to M01, Mean, SDAT_all Female: 0.095
[2]; serum, females, autopsy AD vs post mortem control
  Ratio of ethanolamine phospholipid ratio to M01, Autopsy AD vs. Control, Female: 1.122
[2]; serum, females, cognitive normal
  Ethanolamine phospholipid ratio to M01, Mean, Cognitive Normal, Female: 0.111
[2]; [3]
  Ethanolamine phospholipid ratio to M01, Mean, Post Mortem SDAT Female: 0.069
[2]; [4]
  Ethanolamine phospholipid ratio to M01, Mean, Post Mortem Ctl, Female: 0.061
[2]; serum, males, SDAT ADAS 20-39 vs ADAS 5-19
  Ratio of ethanolamine phospholipid ratio to M01, ADAS 20-39 to 5-19, Male: 0.948
[2]; serum, males, SDAT ADAS 40-70 vs ADAS 5-19
  Ratio of ethanolamine phospholipid ratio to M01, ADAS 40-70 to 5-19, Male: 0.913
[2]; serum, males, SDAT ADAS 40-70 vs ADAS 20-39
  Ratio of ethanolamine phospholipid ratio to M01, ADAS 40-70 to 20-39, Male: 0.963
[2]; serum, males, age control 30-39
  Ethanolamine phospholipid ratio to M01, Mean, Age Ctl, 30-39, Male: 0.126
[2]; serum, males, age control 40-49
  Ethanolamine phospholipid ratio to M01, Mean, Age Ctl, 40-49, Male: 0.117
[2]; serum, males, age control 50-59
  Ethanolamine phospholipid ratio to M01, Mean, Age Ctl, 50-59, Male: 0.121
[2]; serum, males, age control 60-69
  Ethanolamine phospholipid ratio to M01, Mean, Age Ctl, 60-69, Male: 0.102
[2]; serum, males, age control 70+
  Ethanolamine phospholipid ratio to M01, Mean, Age Ctl, 70+_Male: 0.092
[2]; serum, males, post mortem SDAT
  Ethanolamine phospholipid ratio to M01, Mean, Post Mortem SDAT Male: 0.060
[2]; serum, males, post mortem SDAT vs post mortem control
  Ratio of ethanolamine phospholipid ratio to M01, SDAT vs Control (post mortem, males): 0.759
[2]; serum, males, post mortem control
  Ethanolamine phospholipid ratio to M01, Mean, Post Mortem Ctl, Male: 0.079
